Results are given in words; binding and its absence hold for the method and conditions named. Binding seen in cells or lysates may run through a third protein. Here binding means that the protein was enriched with, or labelled near, the bait; the list need not be complete. For part of these data: No binding means not detected with the bait.
T1: Halo-SETD2C (1404–2564) (human) (UniProt Q9BYW2)
T1 sequence: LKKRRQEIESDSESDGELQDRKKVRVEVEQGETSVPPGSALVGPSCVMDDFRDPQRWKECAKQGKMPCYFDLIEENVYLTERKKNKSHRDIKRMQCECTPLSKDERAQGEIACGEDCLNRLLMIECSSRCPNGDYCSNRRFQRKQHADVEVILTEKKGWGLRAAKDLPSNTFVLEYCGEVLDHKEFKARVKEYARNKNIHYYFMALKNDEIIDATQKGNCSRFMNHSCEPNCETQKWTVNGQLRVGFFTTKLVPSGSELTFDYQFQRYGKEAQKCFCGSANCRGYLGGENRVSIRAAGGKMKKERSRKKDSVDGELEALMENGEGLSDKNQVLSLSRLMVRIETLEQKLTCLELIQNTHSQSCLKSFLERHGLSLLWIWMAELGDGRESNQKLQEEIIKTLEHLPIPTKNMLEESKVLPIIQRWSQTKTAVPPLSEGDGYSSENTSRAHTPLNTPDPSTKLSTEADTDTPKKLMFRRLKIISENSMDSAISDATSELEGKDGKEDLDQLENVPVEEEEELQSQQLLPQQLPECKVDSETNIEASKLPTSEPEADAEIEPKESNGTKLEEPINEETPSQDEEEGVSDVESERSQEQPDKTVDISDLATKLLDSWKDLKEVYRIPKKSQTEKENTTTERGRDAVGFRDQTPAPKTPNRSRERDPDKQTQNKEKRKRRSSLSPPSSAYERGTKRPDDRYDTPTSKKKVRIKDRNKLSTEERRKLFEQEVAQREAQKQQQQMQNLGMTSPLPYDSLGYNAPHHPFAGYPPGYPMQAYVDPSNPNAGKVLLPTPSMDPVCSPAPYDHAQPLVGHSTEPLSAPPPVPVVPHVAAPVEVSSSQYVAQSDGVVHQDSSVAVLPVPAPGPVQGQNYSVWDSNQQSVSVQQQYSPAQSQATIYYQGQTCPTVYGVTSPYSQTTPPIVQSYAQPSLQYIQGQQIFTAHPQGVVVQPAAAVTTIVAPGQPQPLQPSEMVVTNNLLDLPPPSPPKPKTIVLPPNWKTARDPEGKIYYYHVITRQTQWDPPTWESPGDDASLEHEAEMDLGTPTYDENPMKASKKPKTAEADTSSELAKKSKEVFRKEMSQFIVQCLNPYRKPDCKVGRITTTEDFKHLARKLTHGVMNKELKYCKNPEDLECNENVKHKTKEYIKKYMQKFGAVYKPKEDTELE

T2: Halo-SETD2C L2188A L2189A (human) (UniProt Q9BYW2)
T2 sequence: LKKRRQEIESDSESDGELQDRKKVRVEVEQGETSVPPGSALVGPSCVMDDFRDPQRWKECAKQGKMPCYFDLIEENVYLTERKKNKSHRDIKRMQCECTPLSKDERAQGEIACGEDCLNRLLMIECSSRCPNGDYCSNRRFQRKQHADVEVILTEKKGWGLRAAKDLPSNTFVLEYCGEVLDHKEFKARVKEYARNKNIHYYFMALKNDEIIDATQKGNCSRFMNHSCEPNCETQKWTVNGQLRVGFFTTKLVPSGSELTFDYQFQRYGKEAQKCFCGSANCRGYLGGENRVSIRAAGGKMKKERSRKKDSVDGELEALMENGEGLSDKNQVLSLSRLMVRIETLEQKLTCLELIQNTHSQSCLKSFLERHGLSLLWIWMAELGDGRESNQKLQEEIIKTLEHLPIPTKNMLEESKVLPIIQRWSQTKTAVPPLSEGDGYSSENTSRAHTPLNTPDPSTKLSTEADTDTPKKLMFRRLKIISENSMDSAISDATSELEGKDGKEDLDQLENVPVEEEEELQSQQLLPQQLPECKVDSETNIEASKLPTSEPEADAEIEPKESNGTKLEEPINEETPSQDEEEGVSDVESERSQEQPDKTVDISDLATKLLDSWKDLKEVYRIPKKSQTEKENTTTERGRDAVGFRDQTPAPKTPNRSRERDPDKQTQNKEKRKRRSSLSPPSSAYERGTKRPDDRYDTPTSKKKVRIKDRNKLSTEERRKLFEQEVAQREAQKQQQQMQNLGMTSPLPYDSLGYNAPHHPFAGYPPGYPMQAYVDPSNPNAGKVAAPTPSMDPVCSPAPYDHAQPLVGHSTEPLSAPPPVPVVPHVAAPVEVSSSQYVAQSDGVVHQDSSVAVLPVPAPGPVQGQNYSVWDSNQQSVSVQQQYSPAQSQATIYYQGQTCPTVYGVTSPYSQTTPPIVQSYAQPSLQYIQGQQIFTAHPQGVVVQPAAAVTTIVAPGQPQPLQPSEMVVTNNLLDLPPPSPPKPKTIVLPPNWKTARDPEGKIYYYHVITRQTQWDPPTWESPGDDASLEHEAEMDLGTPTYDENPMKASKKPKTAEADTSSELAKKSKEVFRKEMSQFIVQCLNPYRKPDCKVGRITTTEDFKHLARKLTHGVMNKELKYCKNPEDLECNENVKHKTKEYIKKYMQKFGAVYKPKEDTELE

T3: Halo-ySet2 (yeast) (UniProt P46995)
T3 sequence: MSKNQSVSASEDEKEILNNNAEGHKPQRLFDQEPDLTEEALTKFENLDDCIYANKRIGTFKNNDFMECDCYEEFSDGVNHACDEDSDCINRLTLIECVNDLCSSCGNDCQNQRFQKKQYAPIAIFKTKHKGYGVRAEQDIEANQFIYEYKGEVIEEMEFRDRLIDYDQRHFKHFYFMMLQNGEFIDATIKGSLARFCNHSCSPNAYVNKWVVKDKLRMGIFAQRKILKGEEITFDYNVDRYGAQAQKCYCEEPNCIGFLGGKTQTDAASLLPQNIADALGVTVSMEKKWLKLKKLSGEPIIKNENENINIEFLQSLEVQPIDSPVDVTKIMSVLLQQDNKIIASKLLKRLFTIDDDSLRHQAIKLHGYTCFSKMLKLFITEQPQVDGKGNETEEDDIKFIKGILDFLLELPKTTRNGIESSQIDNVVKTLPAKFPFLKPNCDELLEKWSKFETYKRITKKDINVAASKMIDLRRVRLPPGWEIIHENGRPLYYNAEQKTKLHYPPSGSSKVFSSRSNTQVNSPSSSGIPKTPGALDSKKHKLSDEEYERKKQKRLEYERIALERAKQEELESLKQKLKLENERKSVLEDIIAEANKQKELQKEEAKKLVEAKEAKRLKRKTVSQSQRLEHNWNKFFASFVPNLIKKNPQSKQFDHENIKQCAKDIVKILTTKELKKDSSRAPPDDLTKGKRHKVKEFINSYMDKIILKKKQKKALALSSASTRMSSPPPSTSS

B1: hnRNP L (endogenous) (protein, UniProt P14866 1-589)
chain: MSRRLLPRAEKRRRRLEQRQQPDEQRRRSGAMVKMAAAGGGGGGGRYYGGGSEGGRAPKRLKTDNAGDQHGGGGGGGGGAGAAGGGGGGENYDDPHKTPASPVVHIRGLIDGVVEADLVEALQEFGPISYVVVMPKKRQALVEFEDVLGACNAVNYAADNQIYIAGHPAFVNYSTSQKISRPGDSDDSRSVNSVLLFTILNPIYSITTDVLYTICNPCGPVQRIVIFRKNGVQAMVEFDSVQSAQRAKASLNGADIYSGCCTLKIEYAKPTRLNVFKNDQDTWDYTNPNLSGQGDPGSNPNKRQRQPPLLGDHPAEYGGPHGGYHSHYHDEGYGPPPPHYEGRRMGPPVGGHRRGPSRYGPQYGHPPPPPPPPEYGPHADSPVLMVYGLDQSKMNCDRVFNVFCLYGNVEKVKFMKSKPGAAMVEMADGYAVDRAITHLNNNFMFGQKLNVCVSKQPAIMPGQSYGLEDGSCSYKDFSESRNNRFSTPEQAAKNRIQHPSNVLHFFNAPLEVTEENFFEICDELGVKRPSSVKVFSGKSERSSSGLLEWESKSDALETLGFLNHYQMKNPNGPYPYTLKLCFSTAQHAS
B2: hnRNP LL (endogenous) (protein, UniProt Q8WVV9 1-542)
chain: MSSSSSSPRETYEEDREYESQAKRLKTEEGEIDYSAEEGENRREATPRGGGDGGGGGRSFSQPEAGGSHHKVSVSPVVHVRGLCESVVEADLVEALEKFGTICYVMMMPFKRQALVEFENIDSAKECVTFAADEPVYIAGQQAFFNYSTSKRITRPGNTDDPSGGNKVLLLSIQNPLYPITVDVLYTVCNPVGKVQRIVIFKRNGIQAMVEFESVLCAQKAKAALNGADIYAGCCTLKIEYARPTRLNVIRNDNDSWDYTKPYLGRRDRGKGRQRQAILGEHPSSFRHDGYGSHGPLLPLPSRYRMGSRDTPELVAYPLPQASSSYMHGGNPSGSVVMVSGLHQLKMNCSRVFNLFCLYGNIEKVKFMKTIPGTALVEMGDEYAVERAVTHLNNVKLFGKRLNVCVSKQHSVVPSQIFELEDGTSSYKDFAMSKNNRFTSAGQASKNIIQPPSCVLHYYNVPLCVTEETFTKLCNDHEVLTFIKYKVFDAKPSAKTLSGLLEWECKTDAVEALTALNHYQIRVPNGSNPYTLKLCFSTSSHL

Experiments:
Assay in all cases: affinity purification with mass spectrometry; Halo-tagged bait expressed in 293T cells, Halo affinity purification from extracts, MudPIT; for SETD2C also from extracts of cells depleted of hnRNP L
[1] = biological target: T1, Halo-SETD2C (1404–2564) (human)
[2] = biological target: T2, Halo-SETD2C L2188A L2189A (human)
Halo-ySet2 (yeast) = biological target: T3, Halo-ySet2 (yeast)

Binder | binding [1] | binding [2] | binding (Halo-ySet2 (yeast))
B1 | binds | no binding | –
B2 | – | – | no binding
